# Results from PubChem BioAssay AID504832 (National Center for Advancing Translational Sciences (NCATS), 2011).
# What follows is the remainder of the data, with few or none of the hits. Results filed as inconclusive are left out. Active and inactive are the calls of the source. Calls follow the shape of the dose curve; as a rule, active = well fitted inhibition curve with a large enough effect; inconclusive = small, poorly fitted or top-dose-only effect, or another doubt; inactive = no such curve, though single readings can be large or run the other way.
# Test: Primary qHTS for delayed death inhibitors of the malarial parasite plastid, 48 hour incubation
# Settings: P. falciparum luciferase growth in erythrocytes; at 28.7 µM (top of the series)
# Excerpt: The goal of this screen is to discover new antimalarial compounds that act by inhibiting the development of the apicoplast in the malarial parasite Plasmodium falciparum. The biochemical processes that make this organelle essential for erythrocytic stage parasites are not well understood. However, antibiotics such as azithromycin and tetracycline, which target the apicoplast translational machinery, have a potent antimalarial effect.
# We have developed a cell-based assay that measures parasite growth based on the expression of an integrated copy of a firefly luciferase reporter. To detect small molecules that cause this "delayed death" phenotype, erythrocytes infected with the luciferase-expressing parasites were incubated with compounds for either one or two generations, corresponding to 48 and 96 hours, respectively. Compounds that inhibit parasite growth in the second generation, but not the first, should be enriched in antimalarials that target the apicoplast. Growth inhibition is detected by a decrease in luciferase activity.
# Assay Provider: David Fidock and Eric Ekland, Columbia University
# Keywords: NIH Roadmap, MLPCN, MLI, MLSMR, qHTS, NCGC, qHTS, malaria, luciferase, viability
# Four microliters of culture medium (RPMI 1640 with 0.5% w/v Albumax (GIBCO), 24 mM sodium bicarbonate and 10 ug/mL gentamycin) were dispensed by a Multi-drop Combi into white solid 1536-well plates (Grenier) and 23 nL compound was added by a pin tool. Four microliters of infected erythrocytes (2% hematocrit, 0.1% parasitemia final concentration) in culture medium were dispensed and the plates incubated for 48 hours at 37 C in 5% CO2. Two microliters of luciferase detection reagent was added and luminescence was detected by a ViewLux (PerkinElmer) reader.
# % is scaled to controls: 0 for no effect and ±100 for the full control effect.
row,SMILES,"activity change, negative = inhibition"
1,O=C1CC(c2ccccc2)Oc2cc(O)ccc21 (stereo not drawn),inactive: 30.6%
2,O=c1ccc2ccc(OCc3ccccc3)cc2o1,inactive: 91%
3,Cc1cc(=O)oc2cc(OCc3ccccc3)ccc12,inactive: 90.7%
